Data: publication PMC10819704, “Regulatory Role of GgaR (YegW) for Glycogen Accumulation in Escherichia coli K-12” (Microorganisms, 2024)

Molecular target: T1, GgaR (YegW) (Escherichia coli K-12 W3110) (UniProt P0ACM5)
T1 sequence (looked up): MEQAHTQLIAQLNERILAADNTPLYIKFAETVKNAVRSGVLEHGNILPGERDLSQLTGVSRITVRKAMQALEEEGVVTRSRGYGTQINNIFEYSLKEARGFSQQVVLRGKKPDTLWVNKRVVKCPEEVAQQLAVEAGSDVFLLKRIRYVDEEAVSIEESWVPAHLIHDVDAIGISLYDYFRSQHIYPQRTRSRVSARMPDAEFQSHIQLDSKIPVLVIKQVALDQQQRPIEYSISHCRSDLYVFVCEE
Assay: EMSA
Details: EMSA: binding buffer composition and pH not given, 37 C, 30 min (+30 min with effector), 0.5 pmol probe, 5% PAGE, recombinant protein, probe letters rebuilt from the primers and the genome

[1] = 5 or 10 pmol GgaR, GelRed stain, residues 1-248, protein details: His tag implied by pET21a(+) NdeI/NotI and Ni-NTA

“TCATTTAACTTCCCCTTGTGTCAACGCAATATCGCGATCATCGACCTTGATAGCCGTAATTTCGTTGTCGGATTCGCGGAAAAAAATCATGAACAGCACGGCGATAATGGCAATCATCACCGCGCCGAAAGTCCACATCCCGGACCAGTTGAAAGTCAGTCCGTTTACCGGTTCCTGATAAGCGAACATCTTTTCCATCATCACACCGCCAAGACGATAGCCGAGCAAACTGCCGAAGCCCTGGCAGCAGAGCGTGATCAGCCCCTGCGCAGCGGTACGCATATGCACGGGGGCTTTTTTATCGACATAGATGTAAGCGGTAACGTAGTAAAAATCGTAACTTACGCCGTGAAGCAAAATACCGAGGAACAGTAACGCGTAGGTGAAATATTCATCCGCACTACCGTAAATAAAGAAGCCATAGCGGATCGCAGCGGTGACCAGACCAAGCAATAATACCTT (double strand) [probe-6]”: no binding [1].
“CAAATGAAGCTCCGGCAGAGTGCTCAACGCCCTGGTCAACCGGCAGAATAGAAAGATATCCTGTGCCAGCCAGACGCCCGGTGTTGTACAACGTCTGCATATTACGTAACACCGCTGGCGGGCGATTATTGTCAATCATTACGCGGTCTACGTAGTCATGTCCGGGGAGATAAAGCTGGTCAGAAGGAATTGTCATACAACGGTGCTGTAAAAGGTTGTCGGCGTCTTTGCCAAGCAACTGCGCAATATCTGTCATTACTATGCTCCCGTAAATTCCGATTGGATATCGGCTATGGATTGTCCTGGCCCGCCTTTTGCGGGCAATCATAATCCTGGTCGTTACGGGCGAGTTTTTCCATCTTTTGGATGTTTTTTCAGCGTTTTCTGTTGGCTCGATTCATCAGAAAAAATGTTAGCGCGGTCAAGTTTTCACCGCAAAGGTATTTAAAAGGTATTATTAAGTGGTATTGTCATCGCGTACCTTACATTACCTGTCATG (double strand) [fbaB/yegT spacer probe]”: binds (0.25-3 pmol GgaR, GelRed …, residues 1-248, protein details: His tag implied by pET21a(+) NdeI/NotI and Ni-NTA); binds (ADP 10-100 uM, 2.0 pmol GgaR, no interference, GelRed stain, residues 1-248, protein details: His tag implied by pET21a(+) NdeI/NotI and Ni-NTA); binds more weakly (ADPG 10-100 uM, 2.0 pmol GgaR, complex reduced, GelRed stain, residues 1-248, protein details: His tag implied by pET21a(+) NdeI/NotI and Ni-NTA). “CAAATGAAGCTCCGGCAGAGTGCTCAACGCCCTGGTCAACCGGCAGAATAGAAAGATATCCTGTGCCAGCCAGACGCCCGGTGTTGTACAACGTCTGCATATTACGTAACACCGCTGGCGGGCGATTATTGTCAATCATTACGCGGTCTACGTAGTCATGTCCGGGGAGATAAAGCTGGTCAGAAGGAATTGTCATACAACGGTGCTGTAAAAGGTTGTCGGCGTCTTTGCCAAGCAACTGCGCAATATCTGTCATTACTATGCTCCCGTAAATTCCGATTGGATATCGGCTATGGATTGTCCTGGCCCGCCTTTTGCGGGCAATCATAATCCTGGTCGTTACGGGCGAGTTTTTCCATCTTTTGGATGTTTTTTCAGCGTTTTCTGTTGGCTCGATTCATCAGAAAAAATGTTAGCGCGGTCAAGTTTTCACCGCAAAGGTATTTAAAAGGTATTATTAAGTGGTATTGTCATCGCGTACCTTACATTACCTGTCATG (double strand) [fbaB/yegT spacer probe]”: binds (glucose 10-100 uM, 2.0 pmol GgaR, no interference, GelRed stain, residues 1-248, protein details: His tag implied by pET21a(+) NdeI/NotI and Ni-NTA).
“CCAACTTCGGTCAGATAACCGTTGGCAAAGATGTAATAGAACGCTAGTGGCATCGCAAACAGGAATGAACAGAAGAAAAAGACGAGGAAGTTTTTATCGCGCAGCAGGATCAGCGCATCCAGGCCGAGCATGACTTTAATATCCATTTTGCCGGTGCTTTTTGGTGGCGTGTCGGGCAGGAAAAACGCAAACACACCGAGCAGAGCAGAACTTCCGGCGGTAATCAGCAGCGGGATGTTAGTCGGTGAGATATCGGCATACCCCAGTATTTGCGGCAAGAAACCACATGCCAGACCGGAGGCAATCCAGCCGATAGTGCCCATCACACGAATGCGCGGGAAATCACGCTCAACATCCGGCACGTTGGCAAAAGCGATGCTGTTAGTCAGCGCAATGGTCGGCATATAGGTTAGCGAGTAGGCCAGCAGTAACGGGAAGAACCCGGCAAAAGTGGTCTGTTGCGCAGCGAAATACATCAGCAGCGCGCCTGCGAACATCAATACCGCCAGCACTTTTTGCGCCGAGAAAAAGCGGTCAGTGAT (double strand) [probe-4]”: no binding [1].
“GGCATATAGGTTAGCGAGTAGGCCAGCAGTAACGGGAAGAACCCGGCAAAAGTGGTCTGTTGCGCAGCGAAATACATCAGCAGCGCGCCTGCGAACATCAATACCGCCAGCACTTTTTGCGCCGAGAAAAAGCGGTCAGTGATGGAGCCAACCAGAATTGGCGACAGGATCGCCGCAATGGCGGTACAGGCATACGACCAGCCAATTTCTCCGGCACTAAAACCGCTTTTACTTAACCACAACCACAATGGCACAAACCACGCGCCCCAGATAAACCATTCAACAAACATCATGAACGACAGCTTTGCTGTTGTTTTCATCTTTTAATTCCTTCATGACAG (double strand) [probe-3]”: no binding [1].

Negatives hold for the conditions tested. Protein sequences can lack the tags named with them. Construct, isoform or probe ends are uncertain for at least one entry. A weaker result is weaker than the reference pair of the same experiment.
